According to article PMC4712785:
These are yes or no findings as the source states them, for the method shown. In cells and extracts the contact can be indirect. Some entries that bind do so weakly or less than the wild type. Where a sequence is shown, tags or fusion partners need not be part of it.

By UniProt entry, the sequences of proteins in these tests, tags left out.
UniProt P06780: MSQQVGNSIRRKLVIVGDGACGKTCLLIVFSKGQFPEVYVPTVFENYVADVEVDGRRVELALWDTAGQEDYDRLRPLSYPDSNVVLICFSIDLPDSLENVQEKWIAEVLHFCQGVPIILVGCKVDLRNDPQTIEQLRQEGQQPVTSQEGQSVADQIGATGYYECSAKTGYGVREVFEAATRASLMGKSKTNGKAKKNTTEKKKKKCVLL

Columns and labels:
GST–Aly2 (S. cerevisiae) = molecular target: T1, GST–Aly2 (S. cerevisiae) (UniProt P47029); assay: pull-down; GST or GST–α-arrestins from BJ5459 GEV yeast extracts on glutathione-agarose beads, washed, incubated 2 h at 4°C with extract of cells expressing HA-Rho1; 100 mM NaCl, 0.2% Triton X-100, 15 mM EGTA, 50 mM Tris-HCl pH 7.4; immunoblot anti-HA and anti-GST; only the target purified
T1 sequence: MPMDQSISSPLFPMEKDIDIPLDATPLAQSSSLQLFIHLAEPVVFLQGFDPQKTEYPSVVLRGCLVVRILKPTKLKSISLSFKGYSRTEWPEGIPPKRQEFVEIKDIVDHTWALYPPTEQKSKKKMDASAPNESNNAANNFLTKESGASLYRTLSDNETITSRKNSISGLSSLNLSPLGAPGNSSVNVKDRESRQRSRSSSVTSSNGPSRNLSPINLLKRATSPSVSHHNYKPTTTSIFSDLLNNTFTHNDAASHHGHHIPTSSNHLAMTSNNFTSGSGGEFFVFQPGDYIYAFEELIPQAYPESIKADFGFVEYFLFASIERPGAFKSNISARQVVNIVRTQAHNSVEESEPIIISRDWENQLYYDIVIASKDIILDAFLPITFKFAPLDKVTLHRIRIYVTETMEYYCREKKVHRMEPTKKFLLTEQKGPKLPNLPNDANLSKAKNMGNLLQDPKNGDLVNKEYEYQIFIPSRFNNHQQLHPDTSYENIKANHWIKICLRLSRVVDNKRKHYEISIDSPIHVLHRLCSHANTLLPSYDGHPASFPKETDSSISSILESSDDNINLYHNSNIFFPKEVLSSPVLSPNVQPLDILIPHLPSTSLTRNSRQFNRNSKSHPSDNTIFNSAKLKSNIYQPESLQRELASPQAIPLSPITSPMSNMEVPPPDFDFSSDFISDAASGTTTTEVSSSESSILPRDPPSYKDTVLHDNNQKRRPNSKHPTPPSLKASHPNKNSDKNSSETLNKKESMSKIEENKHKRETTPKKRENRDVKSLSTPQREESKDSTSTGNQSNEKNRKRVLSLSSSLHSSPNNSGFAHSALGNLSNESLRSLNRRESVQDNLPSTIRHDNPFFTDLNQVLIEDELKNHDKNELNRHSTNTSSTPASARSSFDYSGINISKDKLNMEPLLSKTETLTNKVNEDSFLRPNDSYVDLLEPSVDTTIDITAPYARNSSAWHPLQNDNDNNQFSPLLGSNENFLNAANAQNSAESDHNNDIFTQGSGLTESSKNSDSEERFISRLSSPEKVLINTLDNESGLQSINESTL

GST–Aly1 (S. cerevisiae) = molecular target: T2, GST–Aly1 (S. cerevisiae) (UniProt P36117); assay: as above
T2 sequence: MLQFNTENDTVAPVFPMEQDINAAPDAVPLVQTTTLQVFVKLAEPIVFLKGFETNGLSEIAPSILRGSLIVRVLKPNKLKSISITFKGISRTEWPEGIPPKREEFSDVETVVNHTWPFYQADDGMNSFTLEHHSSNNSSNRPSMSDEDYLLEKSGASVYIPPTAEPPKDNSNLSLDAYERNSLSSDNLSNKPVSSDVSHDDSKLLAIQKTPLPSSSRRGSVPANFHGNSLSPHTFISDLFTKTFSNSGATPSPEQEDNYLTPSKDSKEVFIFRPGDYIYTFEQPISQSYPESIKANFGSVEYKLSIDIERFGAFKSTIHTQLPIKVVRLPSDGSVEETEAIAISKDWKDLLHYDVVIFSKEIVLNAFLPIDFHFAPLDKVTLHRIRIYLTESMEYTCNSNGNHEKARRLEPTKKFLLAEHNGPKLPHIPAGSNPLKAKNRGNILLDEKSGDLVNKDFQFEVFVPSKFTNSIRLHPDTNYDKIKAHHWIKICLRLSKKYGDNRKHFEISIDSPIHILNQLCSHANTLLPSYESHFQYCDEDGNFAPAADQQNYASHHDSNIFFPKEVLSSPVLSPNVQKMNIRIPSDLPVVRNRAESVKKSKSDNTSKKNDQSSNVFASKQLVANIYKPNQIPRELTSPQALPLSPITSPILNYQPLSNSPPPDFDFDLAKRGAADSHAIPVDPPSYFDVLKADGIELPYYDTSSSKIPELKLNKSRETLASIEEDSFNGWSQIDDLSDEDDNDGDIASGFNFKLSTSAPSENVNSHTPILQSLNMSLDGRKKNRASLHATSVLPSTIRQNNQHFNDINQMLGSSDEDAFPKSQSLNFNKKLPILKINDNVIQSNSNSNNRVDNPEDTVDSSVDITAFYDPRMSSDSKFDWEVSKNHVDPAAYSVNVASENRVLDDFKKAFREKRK

For HA–Rho1 (from UniProt P06780 1-209), the binding (GST–Aly2 (S. cerevisiae)) was “binds” and the binding (GST–Aly1 (S. cerevisiae)) was “binds”.
